According to article doi:10.1101/2020.04.23.058487:
Results are given in words; binding and its absence hold for the method and conditions named. In cells and extracts the contact can be indirect. Some binding calls cover weakened binding; strength is not graded here. For some of these results: Where a sequence is shown, tags or fusion partners need not be part of it.

Amino acid sequences for entries named in this document (tags omitted).
UniProt P05804: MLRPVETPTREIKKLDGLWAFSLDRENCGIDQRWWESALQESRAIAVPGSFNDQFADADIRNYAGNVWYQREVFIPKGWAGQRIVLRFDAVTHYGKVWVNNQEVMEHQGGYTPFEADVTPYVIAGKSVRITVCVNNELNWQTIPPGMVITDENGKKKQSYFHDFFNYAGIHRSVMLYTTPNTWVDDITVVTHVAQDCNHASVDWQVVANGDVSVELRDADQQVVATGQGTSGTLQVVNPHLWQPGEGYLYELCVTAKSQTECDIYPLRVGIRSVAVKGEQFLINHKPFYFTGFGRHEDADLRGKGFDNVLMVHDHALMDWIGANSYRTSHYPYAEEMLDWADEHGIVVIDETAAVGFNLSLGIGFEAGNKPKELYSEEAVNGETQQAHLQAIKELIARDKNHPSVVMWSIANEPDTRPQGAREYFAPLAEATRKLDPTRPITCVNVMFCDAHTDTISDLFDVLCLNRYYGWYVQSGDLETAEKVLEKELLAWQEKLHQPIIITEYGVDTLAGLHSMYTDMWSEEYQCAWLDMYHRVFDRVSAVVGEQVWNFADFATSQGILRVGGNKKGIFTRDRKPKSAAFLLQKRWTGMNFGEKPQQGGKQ

T1: nVenus-TIR1 (Arabidopsis thaliana) (UniProt Q570C0)
T1 sequence: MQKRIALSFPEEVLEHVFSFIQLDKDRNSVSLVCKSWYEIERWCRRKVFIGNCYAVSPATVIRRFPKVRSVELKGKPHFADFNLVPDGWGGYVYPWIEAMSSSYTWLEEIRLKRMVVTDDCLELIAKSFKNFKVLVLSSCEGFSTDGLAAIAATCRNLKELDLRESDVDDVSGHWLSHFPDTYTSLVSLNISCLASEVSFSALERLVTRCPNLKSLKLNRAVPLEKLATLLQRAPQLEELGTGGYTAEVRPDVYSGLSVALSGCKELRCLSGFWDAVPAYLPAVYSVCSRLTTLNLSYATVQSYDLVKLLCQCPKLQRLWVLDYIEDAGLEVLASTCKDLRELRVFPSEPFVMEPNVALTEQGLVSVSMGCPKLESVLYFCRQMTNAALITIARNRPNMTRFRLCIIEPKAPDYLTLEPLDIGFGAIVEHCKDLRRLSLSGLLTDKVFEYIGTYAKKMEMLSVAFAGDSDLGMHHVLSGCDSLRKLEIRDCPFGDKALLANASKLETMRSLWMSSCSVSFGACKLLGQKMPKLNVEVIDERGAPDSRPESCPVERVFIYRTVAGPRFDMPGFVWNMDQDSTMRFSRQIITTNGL

T2: nVenus-ITPK1 (Arabidopsis thaliana) (UniProt Q9SBA5)
T2 sequence: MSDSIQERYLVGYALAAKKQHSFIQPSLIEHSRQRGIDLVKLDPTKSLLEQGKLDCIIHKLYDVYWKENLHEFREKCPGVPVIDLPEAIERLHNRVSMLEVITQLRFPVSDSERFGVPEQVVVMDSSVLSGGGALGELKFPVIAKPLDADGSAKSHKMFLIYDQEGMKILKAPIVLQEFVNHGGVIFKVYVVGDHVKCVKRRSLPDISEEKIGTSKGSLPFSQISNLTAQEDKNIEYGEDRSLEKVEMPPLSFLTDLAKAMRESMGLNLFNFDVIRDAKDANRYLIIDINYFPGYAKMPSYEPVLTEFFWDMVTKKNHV

T3: cCFP-TIR1 (Arabidopsis thaliana) (UniProt Q570C0)
T3 sequence: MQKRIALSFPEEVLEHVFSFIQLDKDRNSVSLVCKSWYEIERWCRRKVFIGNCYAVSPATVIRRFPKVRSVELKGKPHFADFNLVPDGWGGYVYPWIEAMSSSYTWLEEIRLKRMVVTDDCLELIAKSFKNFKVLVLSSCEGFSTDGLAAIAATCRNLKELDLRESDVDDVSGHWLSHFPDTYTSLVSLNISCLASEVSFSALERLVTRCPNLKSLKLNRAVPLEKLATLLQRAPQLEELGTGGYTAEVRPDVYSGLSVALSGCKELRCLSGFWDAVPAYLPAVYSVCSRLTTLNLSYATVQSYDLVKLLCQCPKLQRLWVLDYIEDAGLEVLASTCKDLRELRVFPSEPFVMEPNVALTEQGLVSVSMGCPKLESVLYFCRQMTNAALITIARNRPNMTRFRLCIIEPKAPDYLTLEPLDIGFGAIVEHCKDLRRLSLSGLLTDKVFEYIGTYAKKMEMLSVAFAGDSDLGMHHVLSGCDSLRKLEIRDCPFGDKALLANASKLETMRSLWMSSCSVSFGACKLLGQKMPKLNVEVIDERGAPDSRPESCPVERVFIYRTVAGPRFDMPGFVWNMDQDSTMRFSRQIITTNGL

T4: cCFP-ITPK1 (Arabidopsis thaliana) (UniProt Q9SBA5)
T4 sequence: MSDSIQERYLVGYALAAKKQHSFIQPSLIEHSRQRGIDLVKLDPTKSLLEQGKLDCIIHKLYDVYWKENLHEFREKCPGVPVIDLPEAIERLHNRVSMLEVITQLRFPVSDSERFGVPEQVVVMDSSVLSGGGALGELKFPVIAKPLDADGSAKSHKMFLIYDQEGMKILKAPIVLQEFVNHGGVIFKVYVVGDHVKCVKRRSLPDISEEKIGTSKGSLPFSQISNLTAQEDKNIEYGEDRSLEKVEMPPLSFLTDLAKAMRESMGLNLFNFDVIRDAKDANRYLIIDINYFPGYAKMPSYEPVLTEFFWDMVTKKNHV

T5: ITPK1-G3GFP (Arabidopsis thaliana) (UniProt Q9SBA5)
T5 sequence: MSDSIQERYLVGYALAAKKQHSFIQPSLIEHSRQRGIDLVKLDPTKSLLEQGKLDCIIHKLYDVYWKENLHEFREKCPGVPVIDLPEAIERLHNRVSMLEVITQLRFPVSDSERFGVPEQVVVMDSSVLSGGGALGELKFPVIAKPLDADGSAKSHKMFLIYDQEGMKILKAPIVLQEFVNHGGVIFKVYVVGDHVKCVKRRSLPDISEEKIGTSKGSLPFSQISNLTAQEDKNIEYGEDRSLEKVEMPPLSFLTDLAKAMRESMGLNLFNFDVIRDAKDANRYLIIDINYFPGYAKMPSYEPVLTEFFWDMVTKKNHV


Columns and labels:
[1] = molecular target: T1, nVenus-TIR1 (Arabidopsis thaliana); assay: split reporter
[2] = molecular target: T2, nVenus-ITPK1 (Arabidopsis thaliana); assay: split reporter
[3] = molecular target: T3, cCFP-TIR1 (Arabidopsis thaliana); assay: split reporter
[4] = molecular target: T4, cCFP-ITPK1 (Arabidopsis thaliana); assay: split reporter
[5] = molecular target: T5, ITPK1-G3GFP (Arabidopsis thaliana); assay: co-IP

| Molecule | binding [2] | binding [4] | further results |
| --- | --- | --- | --- |
| cCFP-tagged GUS (control) (from UniProt P05804 1-603) (enzyme) | no binding | – | binding [1]: no binding |
| TIR1 (TRANSPORT INHIBITOR RESPONSE1), endogenous (protein, UniProt Q570C0 1-594) MQKRIALSFPEEVLEHVFSFIQLDKDRNSVSLVCKSWYEIERWCRRKVFIGNCYAVSPATVIRRFPKVRSVELKGKPHFADFNLVPDGWGGYVYPWIEAMSSSYTWLEEIRLKRMVVTDDCLELIAKSFKNFKVLVLSSCEGFSTDGLAAIAATCRNLKELDLRESDVDDVSGHWLSHFPDTYTSLVSLNISCLASEVSFSALERLVTRCPNLKSLKLNRAVPLEKLATLLQRAPQLEELGTGGYTAEVRPDVYSGLSVALSGCKELRCLSGFWDAVPAYLPAVYSVCSRLTTLNLSYATVQSYDLVKLLCQCPKLQRLWVLDYIEDAGLEVLASTCKDLRELRVFPSEPFVMEPNVALTEQGLVSVSMGCPKLESVLYFCRQMTNAALITIARNRPNMTRFRLCIIEPKAPDYLTLEPLDIGFGAIVEHCKDLRRLSLSGLLTDKVFEYIGTYAKKMEMLSVAFAGDSDLGMHHVLSGCDSLRKLEIRDCPFGDKALLANASKLETMRSLWMSSCSVSFGACKLLGQKMPKLNVEVIDERGAPDSRPESCPVERVFIYRTVAGPRFDMPGFVWNMDQDSTMRFSRQIITTNGL | – | – | binding [5]: binds |
| cCFP-TIR1 (protein, UniProt Q570C0 1-594) MQKRIALSFPEEVLEHVFSFIQLDKDRNSVSLVCKSWYEIERWCRRKVFIGNCYAVSPATVIRRFPKVRSVELKGKPHFADFNLVPDGWGGYVYPWIEAMSSSYTWLEEIRLKRMVVTDDCLELIAKSFKNFKVLVLSSCEGFSTDGLAAIAATCRNLKELDLRESDVDDVSGHWLSHFPDTYTSLVSLNISCLASEVSFSALERLVTRCPNLKSLKLNRAVPLEKLATLLQRAPQLEELGTGGYTAEVRPDVYSGLSVALSGCKELRCLSGFWDAVPAYLPAVYSVCSRLTTLNLSYATVQSYDLVKLLCQCPKLQRLWVLDYIEDAGLEVLASTCKDLRELRVFPSEPFVMEPNVALTEQGLVSVSMGCPKLESVLYFCRQMTNAALITIARNRPNMTRFRLCIIEPKAPDYLTLEPLDIGFGAIVEHCKDLRRLSLSGLLTDKVFEYIGTYAKKMEMLSVAFAGDSDLGMHHVLSGCDSLRKLEIRDCPFGDKALLANASKLETMRSLWMSSCSVSFGACKLLGQKMPKLNVEVIDERGAPDSRPESCPVERVFIYRTVAGPRFDMPGFVWNMDQDSTMRFSRQIITTNGL | binds | – | – |

Further lines, with some results ahead:

| binding [2] | binding [4] | Molecule | further results |
| --- | --- | --- | --- |
| – | no binding | nVenus-tagged GUS (control) (from UniProt P05804 1-603) (enzyme) | binding [3]: no binding |
| – | binds | nVenus-TIR1 (protein, UniProt Q570C0 1-594) MQKRIALSFPEEVLEHVFSFIQLDKDRNSVSLVCKSWYEIERWCRRKVFIGNCYAVSPATVIRRFPKVRSVELKGKPHFADFNLVPDGWGGYVYPWIEAMSSSYTWLEEIRLKRMVVTDDCLELIAKSFKNFKVLVLSSCEGFSTDGLAAIAATCRNLKELDLRESDVDDVSGHWLSHFPDTYTSLVSLNISCLASEVSFSALERLVTRCPNLKSLKLNRAVPLEKLATLLQRAPQLEELGTGGYTAEVRPDVYSGLSVALSGCKELRCLSGFWDAVPAYLPAVYSVCSRLTTLNLSYATVQSYDLVKLLCQCPKLQRLWVLDYIEDAGLEVLASTCKDLRELRVFPSEPFVMEPNVALTEQGLVSVSMGCPKLESVLYFCRQMTNAALITIARNRPNMTRFRLCIIEPKAPDYLTLEPLDIGFGAIVEHCKDLRRLSLSGLLTDKVFEYIGTYAKKMEMLSVAFAGDSDLGMHHVLSGCDSLRKLEIRDCPFGDKALLANASKLETMRSLWMSSCSVSFGACKLLGQKMPKLNVEVIDERGAPDSRPESCPVERVFIYRTVAGPRFDMPGFVWNMDQDSTMRFSRQIITTNGL | – |
